# From PubChem BioAssay AID540256 (National Center for Advancing Translational Sciences (NCATS), 2011)
# About 3,700 (1.2%) of roughly 300,000 compounds were called active. Inconclusive means that the source gave no clear call. Such entries were picked first, then a sample of the others. The call rests on the fitted dose curve; tested in HEK293 cells. A potency beside an inconclusive call is a rough fit, not a confirmed value.
# Assay: qHTS for Inhibitors of binding or entry into cells for Lassa Virus; further: nearly all actives have a fitted effect of over 50% in size
# Conditions: Lassa virus pseudotype entry inhibition, cell reporter; series mostly up to 37.9 µM
# Potency means the concentration at half of the fitted maximal effect.
row,SMILES,Potency
1,Cc1cc(C(=O)COC(=O)c2ccc[nH]c2=O)c(C)n1-c1ccccc1,"inconclusive: 10 µM [inhibitor, single point]"
2,O=C(CCCC(=O)OCC(F)(F)C(F)F)Nc1nccs1,inactive
3,O=C(CP(=O)(c1ccccc1)c1ccccc1)Nc1nc2ccc(Cl)cc2s1,"inconclusive: 15.8 µM [inhibitor, single point]"
4,CN1C(=O)C2(c3ccccc31)N(c1ccc(Br)cc1)C(=O)CS2(=O)=O (stereo not drawn),"inconclusive: 28.2 µM [activator, partial curve, poor fit]"
5,COc1ccc2c(c1)-c1nc(NC(=O)c3cc(OC)c(OC)c(OC)c3)sc1CC2,"inconclusive: 28.2 µM [inhibitor, single point]"
6,CCOc1ccc(Oc2nc(Nc3ccc(C)cc3)nc(N(C)C)n2)nn1,inactive
7,O=C(Nc1ccc(F)cc1)N1CCN2C(=O)c3ccccc3C12c1ccccc1 (stereo not drawn),"inconclusive: 11.2 µM [inhibitor, partial curve, poor fit]"
8,Cc1cc(C)n(CC(=O)NC2CCCc3c2cnn3-c2ccc(C)c(C)c2)n1 (stereo not drawn),"inconclusive: 5.62 µM [activator, single point]"
9,Cc1ccccc1Cn1nnc(-c2cccc(C(=O)O)c2)n1,active: 13 µM
10,O=C(COc1ccccc1)Nc1ccccc1Oc1ccccc1,inactive
11,Cc1ccn2cc(-c3cccc([N+](=O)[O-])c3)nc2c1,active: 4.47 µM
12,COc1cc(/C=N/NC(=O)Nc2ccccc2)ccc1OC(C)=O,inactive
13,Cc1ccc(Nc2nc(N)nc(CSC(=S)N3CCOCC3)n2)c(C)c1,"inconclusive: 7.31 µM [activator, partial curve]"
14,Cc1ccc(-n2ncc(C(=O)NCCCN3CCc4ccccc4C3)c2C2CCN(C(=O)OC(C)(C)C)CC2)c(C)c1,"inconclusive: 10 µM [inhibitor, partial curve, poor fit]"
15,CCCCN(CC)CCCNC(=O)c1ccc2c(c1)NC(=O)CN2C,inactive
16,CCCCc1ccc(NC(=O)CSC2=C(C#N)C(c3ccco3)C3=C(CCCC3=O)N2)cc1 (stereo not drawn),"inconclusive: 10 µM [inhibitor, partial curve, poor fit]"
17,Cc1ccc(C(=O)N2CCSC2=S)cc1,"inconclusive: 35.5 µM [inhibitor, single point]"
18,COc1ccc(-c2nc3cccc(C)n3c2NCc2ccco2)cc1OC,inactive
19,COc1ccccc1CN(Cc1cc2cc(C)cc(C)c2[nH]c1=O)Cc1nnnn1CC1CCCO1 (stereo not drawn),"inconclusive: 14.6 µM [inhibitor, partial curve, poor fit]"
20,COc1ccc2cc(C(c3nnnn3Cc3ccc(F)cc3)N3CCCCCC3)c(=O)[nH]c2c1 (stereo not drawn),inactive
21,CCCc1[nH]nc2c1C(C1CC=CCC1)C(C#N)=C(N)O2 (stereo not drawn),"inconclusive: 15.8 µM [inhibitor, single point]"
22,CCC(C)NS(=O)(=O)c1ccc(NC(=O)Cc2ccc(OC)cc2)cc1 (stereo not drawn),"inconclusive: 10 µM [inhibitor, partial curve, poor fit]"
23,CN(C)/N=C/c1c(O)ccc2ccccc12,inactive

row,SMILES,Potency
1,COc1ccc(CN(C)C(=O)C(Cc2ccccc2)NC(=O)c2ccccc2)cc1F (stereo not drawn),"inconclusive: 22.4 µM [inhibitor, partial curve, poor fit]"
2,Cc1ccccc1NC(=O)CSc1nnc(NC(=O)c2ccco2)s1,"inconclusive: 1.12 µM [inhibitor, partial curve, poor fit]"
3,O=C(COC(=O)CNC(=O)c1cc(Cl)cc([N+](=O)[O-])c1)NC(=O)NCc1ccco1,"inconclusive: 3.98 µM [inhibitor, full curve, poor fit]"
4,Cc1cc(C)cc(C(=O)N2CC(=O)Nc3ccc(Br)cc3C2c2ccccc2)c1 (stereo not drawn),"inconclusive: 35.5 µM [inhibitor, single point]"
5,CCCCOc1ccc(C2C(=O)N(C3CCCCC3)CC(=O)N2CCCC)cc1 (stereo not drawn),inactive
6,CCCn1ncc(CN2CCC(CO)(Cc3ccc(OC)cc3)CC2)c1C,"inconclusive: 6.31 µM [inhibitor, single point]"
7,COc1ccccc1CC(=O)Nc1ccc(-c2noc(COc3ccc(Cl)c(C)c3)n2)cc1,"inconclusive: 18.3 µM [inhibitor, single point]"
8,CC(OC(=O)c1cccc(N(C)C)c1)C(=O)N1CCc2ccccc2C1 (stereo not drawn),"inconclusive: 1 µM [activator, single point]"
9,Cc1ccc(S(=O)(=O)N(C)c2ccc(OC(=O)c3ccc(N4CCCC4=O)cc3)cc2)cc1,inactive
10,CC/C(=N/Nc1cccc(C)c1)c1cnnc(SC)n1,inactive
11,Cc1cc(NC(=O)CCN2CCN(C)CC2)ccc1Br,"inconclusive: 1.58 µM [activator, partial curve, poor fit]"
12,CCn1c2ccccc2c2cc(CN3CCN(S(C)(=O)=O)CC3)ccc21,"inconclusive: 35.5 µM [inhibitor, single point]"
13,S=C(NCCc1ccccc1)NCCN1CCOCC1,"inconclusive: 5.62 µM [activator, full curve, poor fit]"
14,COc1ccc(OCC(=O)Nc2sc3c(c2C(=O)NCC2CCCO2)CCC3)cc1 (stereo not drawn),"inconclusive: 16.4 µM [inhibitor, single point]"
15,CC(C)C(=O)N1CCc2cc(-c3csc(N)n3)ccc21,"inconclusive: 4.61 µM [activator, partial curve, poor fit]"
16,Cc1c(Cl)cccc1NC(=O)C(C)n1c(=O)cc(C)c2c(C)nn(-c3ccccc3)c21 (stereo not drawn),inactive
17,O=C(Cc1ccccc1)NCC(=O)Nc1ccc(OC(F)(F)F)cc1,"inconclusive: 0.562 µM [inhibitor, full curve, poor fit]"
18,COc1ccc(C)cc1NC(=O)CN1C(=O)COc2ccc(S(=O)(=O)N3CCC(C)CC3)cc21,"inconclusive: 1.58 µM [inhibitor, partial curve, poor fit]"
19,O=C(Nc1ccc(F)cc1)N(Cc1ccco1)Cc1cc2cc3c(cc2[nH]c1=O)OCO3,inactive
20,COc1ccc(NS(=O)(=O)c2ccc(Oc3c(C#N)cccc3C#N)cc2)cc1,"inconclusive: 3.55 µM [inhibitor, single point]"
21,CC1(C)CC(N2CCCCC2)=CC(=[N+]2CCCCC2)C1,"inconclusive: 2.82 µM [inhibitor, partial curve, poor fit]"
22,COC(=O)c1c(C)[nH]c(C)c1C(=O)c1ccccc1Cc1ccccc1,"inconclusive: 6.51 µM [inhibitor, partial curve, poor fit]"
23,Cc1ccccc1NC(=O)c1ccc(Nc2c([N+](=O)[O-])cc([N+](=O)[O-])c3ccccc23)cc1,"inconclusive: 11.2 µM [inhibitor, single point]"

row,SMILES,Potency
1,CCOC(=O)N1CCN(C(=O)c2ccc(C#CC3(O)CCCCC3)cc2)CC1,inactive
2,COc1ccc(-n2c(SCc3ccccc3)nc3c([nH]c4ccccc43)c2=O)cc1,"inconclusive: 6.31 µM [inhibitor, single point]"
3,Cc1ccnc(NC(=O)CCC(=O)N(Cc2ccco2)C(C(=O)NC(C)C)c2ccc(F)cc2)c1 (stereo not drawn),"inconclusive: 28.2 µM [inhibitor, single point]"
4,CCc1ccc2nc(Nc3nc(COC)cc(=O)[nH]3)nc(C)c2c1,inactive
5,CCCCOC(=O)Nc1cccc(C(C)=O)c1,"inconclusive: 14.6 µM [activator, partial curve, poor fit]"
6,COc1ccc2cc(/C(C)=N/NC(=O)C3CC3)ccc2c1,"inconclusive: 1 µM [inhibitor, full curve, poor fit]"
7,COc1ccccc1C(c1nnnn1Cc1ccccc1)N1CCN(c2nc3ccccc3s2)CC1 (stereo not drawn),"inconclusive: 12.6 µM [inhibitor, partial curve, poor fit]"
8,CCCOc1ccc(C2NC(=S)NC(c3ccccc3)=C2C(=O)Nc2ccc(C)cc2)cc1OC (stereo not drawn),inactive
9,Cc1c(C(=O)N2CCC2)oc2ccc(Br)cc12,"inconclusive: 35.5 µM [activator, single point]"
10,COc1ccc(-c2nc(CN3C(=O)CN=C(c4ccccc4)c4cc(Cl)ccc43)c(C)o2)cc1,inactive
11,CC1(c2cccc(Br)c2)NC(=O)N(CC(=O)Nc2ccc(F)cc2)C1=O (stereo not drawn),"inconclusive: 7.08 µM [inhibitor, partial curve, poor fit]"
12,C=CC[n+]1c(-c2ccc(OCC)cc2)csc1NNC(=O)Nc1ccccc1,"inconclusive: 18.3 µM [inhibitor, partial curve, poor fit]"
13,O=C(NCc1ccccn1)c1ccco1,inactive
14,CCOc1ccc(NC(=O)CCC(=O)NNC(=O)c2ccco2)cc1,inactive
15,C#CC(C)(O)C1CC(CC(=O)O)C1(C)C (stereo not drawn),inactive
16,CCOc1ccc(Br)cc1/C(C)=N\NC1=NCCN1,"inconclusive: 35.5 µM [inhibitor, single point]"
17,COc1ccccc1C(=O)Nc1ccc(S(=O)(=O)N2CCOCC2)cc1,inactive
18,Cc1nn(CCOc2ccccc2)c(=O)n1-c1ccccc1,inactive
19,CC1CCCC(NC(=O)c2ccc3c(=O)n(CC4CCCO4)c(=O)[nH]c3c2)C1C (stereo not drawn),"inconclusive: 9.2 µM [inhibitor, partial curve]"
20,COCCNC(=O)Cn1cc(S(=O)(=O)N2CCN(c3ccccc3F)CC2)c2ccccc2c1=O,"inconclusive: 10 µM [activator, partial curve, poor fit]"
21,Cc1nc2nc(SCC(=O)Nc3ccccc3Cl)nn2c(C)c1Cc1ccccc1,"inconclusive: 5.62 µM [inhibitor, single point]"
22,CN(C)CCCNC(=O)C(=O)NCC(c1ccc2c(c1)OCO2)N1CCOCC1 (stereo not drawn),inactive

# A run of entries of the results above, for reference:
row,SMILES,Potency
5,CCCCOC(=O)Nc1cccc(C(C)=O)c1,"inconclusive: 14.6 µM [activator, partial curve, poor fit]"
6,COc1ccc2cc(/C(C)=N/NC(=O)C3CC3)ccc2c1,"inconclusive: 1 µM [inhibitor, full curve, poor fit]"
7,COc1ccccc1C(c1nnnn1Cc1ccccc1)N1CCN(c2nc3ccccc3s2)CC1 (stereo not drawn),"inconclusive: 12.6 µM [inhibitor, partial curve, poor fit]"
8,CCCOc1ccc(C2NC(=S)NC(c3ccccc3)=C2C(=O)Nc2ccc(C)cc2)cc1OC (stereo not drawn),inactive
9,Cc1c(C(=O)N2CCC2)oc2ccc(Br)cc12,"inconclusive: 35.5 µM [activator, single point]"
10,COc1ccc(-c2nc(CN3C(=O)CN=C(c4ccccc4)c4cc(Cl)ccc43)c(C)o2)cc1,inactive
11,CC1(c2cccc(Br)c2)NC(=O)N(CC(=O)Nc2ccc(F)cc2)C1=O (stereo not drawn),"inconclusive: 7.08 µM [inhibitor, partial curve, poor fit]"
12,C=CC[n+]1c(-c2ccc(OCC)cc2)csc1NNC(=O)Nc1ccccc1,"inconclusive: 18.3 µM [inhibitor, partial curve, poor fit]"
13,O=C(NCc1ccccn1)c1ccco1,inactive
14,CCOc1ccc(NC(=O)CCC(=O)NNC(=O)c2ccco2)cc1,inactive
15,C#CC(C)(O)C1CC(CC(=O)O)C1(C)C (stereo not drawn),inactive
16,CCOc1ccc(Br)cc1/C(C)=N\NC1=NCCN1,"inconclusive: 35.5 µM [inhibitor, single point]"
17,COc1ccccc1C(=O)Nc1ccc(S(=O)(=O)N2CCOCC2)cc1,inactive
18,Cc1nn(CCOc2ccccc2)c(=O)n1-c1ccccc1,inactive
19,CC1CCCC(NC(=O)c2ccc3c(=O)n(CC4CCCO4)c(=O)[nH]c3c2)C1C (stereo not drawn),"inconclusive: 9.2 µM [inhibitor, partial curve]"
